Measurements published in patent US20030217372A1, “Methods of using alpha 1b-adrenergic receptors” (priority 2002, published 2003).

Test system: WT and α1b-AR KO mice
Assay: Oral consumption, two-bottle choice paradigm
Format: in vivo
Procedure: Fluid intake was measured daily by weighting bottles, mice being housed individually. Tested solutions were replaced twice weekly.
Cocaine and morphine: For two weeks, bottles were filled with cocaine or morphine solution of decreasing concentration (one dose per week; 0.3 mg/ml then 0.2 mg/ml for cocaine and 0.2 mg/ml and 0.15 mg/ml for morphine) instead of water, so that mice accustom to the bitter taste. […] Then, to determine mean water consumption and eliminate basal side preference, two bottles of water were given for three days to each animal and basal consumption was calculated as the mean consumption from one bottle on day 2 and the other on day 3. Preference for cocaine (0.2 mg/ml) or morphine (0.15 mg/ml) was then measured over two 12-day sessions, drug and water sides being exchanged between the 2 sessions. Means of drug and water consumptions were estimated for the last 5 days of both 12-day periods.
Rewarding properties of cocaine and morphine were assessed in a two-bottle choice paradigm adapted from the method described by Ferraro et al. (Ferraro et al., Pharmacol. Biochem. Behav. 66:397-401, 2000) for cocaine and Borg and Taylor (Borg et al., Biochem. Behav. 47:633-46, 1994) for morphine.

Row | SMILES | fluid intake when water replaced by drug solution (WT mice, morphine 0.15 mg/ml, water 97.5±5.0) | fluid intake when water replaced by drug solution (α1b-AR KO mice, morphine) | fluid intake when water replaced by drug solution (mice, cocaine 0.3 then 0.2 mg/ml)
1 | CN1CC[C@]23c4c5ccc(O)c4O[C@H]2[C@@H](O)C=C[C@H]3[C@H]1C5 [morphine, morphine chiorhydrate] | 4.883 ± 0.162 mL/h/kg | but not α1b-AR KO fluid intake | 
2 | COC(=O)[C@H]1[C@@H](OC(=O)c2ccccc2)C[C@@H]2CC[C@H]1N2C.Cl [cocaine, cocaine hydrochloride] |  |  | no significant alteration
